Assay results published in US20230240994A1, “MEDICAMENT-CONTAINING HOLLOW PARTICLE” (Sumitomo Pharma Co., Ltd., priority 2012, published 2023).

Experiment: Particle size distribution by laser diffraction particle size analyzer (volume basis)
Format: physicochemical
Settings: starting material as used (medicament, polymer, other additive, mixed powder)
Experimental: In the present invention, the “average particle size” means cumulative 50% particle size D50 in the volume based measurement of powder particles. Such average particle size is measured by a laser diffraction particle size analyzer (e.g., Particle Viewer manufactured by POWREX CORPORATION, or SALD-3000J manufactured by Shimadzu Corporation, or HELOS&RODOS manufactured by Sympatec GmbH) by volume basis.
The particle size distribution of medicament, polymer, other additive, a mixed powder of the medicament and other additive, and the obtained medicament-containing particle was measured by a laser diffraction particle size analyzer (manufactured by POWREX CORPORATION, Particle Viewer) or laser diffraction particle size analyzer (manufactured by Shimadzu Corporation, SAID-3000J) by volume basis.

SMILES: CN(C)C(=N)NC(=N)N.Cl [Compound C, 1,1-dimethylbiguanide monohydrochloride]
- particle size distribution D10: 1.0 μm
- particle size distribution D50: 3.2 μm
- particle size distribution D90: 5.2 μm
